These are yes or no findings as the source states them, for the method shown. Binding seen in cells or lysates may run through a third protein. Some binding calls cover weakened binding; strength is not graded here.

Sequences of proteins named here, by UniProt entry; tags and fusion partners are left off. A change or cut given only in a name is not applied to a line headed by its entry.
UniProt Q60680: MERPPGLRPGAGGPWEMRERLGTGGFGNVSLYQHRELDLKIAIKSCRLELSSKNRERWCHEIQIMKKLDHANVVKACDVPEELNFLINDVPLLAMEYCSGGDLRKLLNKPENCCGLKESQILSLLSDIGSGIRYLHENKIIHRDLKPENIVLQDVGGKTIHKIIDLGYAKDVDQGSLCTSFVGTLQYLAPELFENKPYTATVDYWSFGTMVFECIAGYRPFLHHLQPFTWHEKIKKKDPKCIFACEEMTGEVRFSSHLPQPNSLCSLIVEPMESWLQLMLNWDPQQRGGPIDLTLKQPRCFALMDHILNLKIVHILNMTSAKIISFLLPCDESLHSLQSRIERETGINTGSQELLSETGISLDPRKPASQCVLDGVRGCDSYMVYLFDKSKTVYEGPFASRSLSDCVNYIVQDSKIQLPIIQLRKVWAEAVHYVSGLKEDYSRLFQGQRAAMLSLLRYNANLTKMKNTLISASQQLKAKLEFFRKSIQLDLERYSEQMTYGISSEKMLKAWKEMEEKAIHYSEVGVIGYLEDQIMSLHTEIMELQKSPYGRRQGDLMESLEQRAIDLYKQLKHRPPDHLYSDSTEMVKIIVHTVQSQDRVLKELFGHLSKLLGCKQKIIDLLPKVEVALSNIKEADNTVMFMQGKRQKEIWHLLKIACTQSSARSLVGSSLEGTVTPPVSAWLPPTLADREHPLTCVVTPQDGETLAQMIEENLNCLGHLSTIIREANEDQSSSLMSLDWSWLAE
UniProt O88351: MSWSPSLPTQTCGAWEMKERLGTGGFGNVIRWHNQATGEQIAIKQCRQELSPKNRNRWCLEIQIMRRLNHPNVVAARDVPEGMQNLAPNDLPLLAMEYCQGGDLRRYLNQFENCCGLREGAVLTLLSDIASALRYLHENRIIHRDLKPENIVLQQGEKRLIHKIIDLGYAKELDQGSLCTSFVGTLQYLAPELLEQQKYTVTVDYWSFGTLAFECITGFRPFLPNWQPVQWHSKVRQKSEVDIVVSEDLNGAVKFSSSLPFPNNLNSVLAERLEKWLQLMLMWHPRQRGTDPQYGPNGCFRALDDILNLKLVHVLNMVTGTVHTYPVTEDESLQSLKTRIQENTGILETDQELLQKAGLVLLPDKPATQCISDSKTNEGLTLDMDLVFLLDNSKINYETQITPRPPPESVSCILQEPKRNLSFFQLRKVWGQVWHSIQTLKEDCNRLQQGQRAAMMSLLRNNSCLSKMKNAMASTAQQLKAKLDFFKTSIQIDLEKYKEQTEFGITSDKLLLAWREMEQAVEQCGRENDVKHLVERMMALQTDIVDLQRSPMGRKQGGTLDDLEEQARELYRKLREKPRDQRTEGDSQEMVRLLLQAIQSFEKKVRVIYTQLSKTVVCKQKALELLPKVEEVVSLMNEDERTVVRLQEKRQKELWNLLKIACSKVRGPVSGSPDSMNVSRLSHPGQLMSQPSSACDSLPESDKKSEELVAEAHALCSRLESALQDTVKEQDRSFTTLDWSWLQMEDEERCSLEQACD
UniProt O88522: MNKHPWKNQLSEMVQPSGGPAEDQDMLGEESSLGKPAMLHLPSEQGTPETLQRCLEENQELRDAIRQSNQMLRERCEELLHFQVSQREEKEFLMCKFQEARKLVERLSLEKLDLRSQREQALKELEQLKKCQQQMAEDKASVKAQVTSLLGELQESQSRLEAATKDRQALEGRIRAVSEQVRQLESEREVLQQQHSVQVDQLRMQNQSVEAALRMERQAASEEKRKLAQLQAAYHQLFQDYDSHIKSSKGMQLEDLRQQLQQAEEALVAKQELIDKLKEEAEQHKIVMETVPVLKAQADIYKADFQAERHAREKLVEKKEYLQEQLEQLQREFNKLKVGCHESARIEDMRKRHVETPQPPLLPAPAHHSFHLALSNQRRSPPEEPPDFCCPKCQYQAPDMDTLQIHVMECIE

The assay addresses IκB kinase (IKK) complex (endogenous, WT MEFs) (mouse) (UniProt Q60680+O88351+O88522). Nature of the assay: coimmunoprecipitation from WT MEF whole cell extracts, untreated or TNFα for 6 hours.

B1: endogenous RelB of WT mouse embryonic fibroblasts (MEFs) (protein)
chain: MPSRRAARESAPELGALGSSDLSSLSLTVSRTTDELEIIDEYIKENGFGLDGTQLSEMPRLVPRGPASLSSVTLGPAAPPPPATPSWSCTLGRLVSPGPCPRPYLVITEQPKQRGMRFRYECEGRSAGSILGESSTEASKTLPAIELRDCGGLREVEVTACLVWKDWPHRVHPHSLVGKDCTDGVCRVRLRPHVSPRHSFNNLGIQCVRKKEIEAAIERKIQLGIDPYNAGSLKNHQEVDMNVVRICFQASYRDQQGHLHRMDPILSEPVYDKKSTNTSELRICRINKESGPCTGGEELYLLCDKVQKEDISVVFSTASWEGRADFSQADVHRQIAIVFKTPPYEDLEISEPVTVNVFLQRLTDGVCSEPLPFTYLPRDHDSYGVDKKRKRGLPDVLGELSSSDPHGIESKRRKKKPVFLDHFLPGHSSGLFLPPSALQPADSDFFPASISLPGLEPPGGPDLLDDGFAYDPSAPTLFTMLDLLPPAPPLASAVVGSGGAGATVVESSGPEPLSLDSFAAPGPGDVGTASLVGSNMFPNQYREAAFGGGLLSPGPEAT
For the molecule B1, the binding entry is “binds”.

These data come from patent US20160047821A1.
